From article PMC7819943, “Rice protein-binding microarrays: a tool to detect cis-acting elements near promoter regions in rice”
Some of the results follow.

Biological target: T1, OsSMF1 (Oryza sativa, UniProt Q6ZLB0 1-436)
T1 sequence: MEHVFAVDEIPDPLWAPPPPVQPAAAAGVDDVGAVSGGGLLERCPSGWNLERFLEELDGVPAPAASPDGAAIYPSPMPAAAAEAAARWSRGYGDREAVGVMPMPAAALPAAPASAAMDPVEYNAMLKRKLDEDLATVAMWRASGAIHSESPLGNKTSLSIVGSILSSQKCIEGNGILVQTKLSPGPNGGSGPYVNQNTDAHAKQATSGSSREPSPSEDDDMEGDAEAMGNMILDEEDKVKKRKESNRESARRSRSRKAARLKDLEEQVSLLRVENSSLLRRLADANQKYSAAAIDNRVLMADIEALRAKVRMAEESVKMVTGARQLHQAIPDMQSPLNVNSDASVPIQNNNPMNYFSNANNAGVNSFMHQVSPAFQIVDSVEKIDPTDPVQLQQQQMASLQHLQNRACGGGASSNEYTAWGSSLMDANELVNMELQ
Assay: protein-binding microarray (RPBM); PBS, 2% BSA, 51.3 ng/ul salmon testes DNA, 50 uM zinc acetate, 200 nM TF, 25 C, 1 h; high values mean tight binding
Settings: protein: recombinant; tags: N-terminal polyhistidine and DsRed monomer fusion (pET32a); chain copies: 2; label: CyDye5-dUTP incorporated in the synthesized complementary strand; 3' TTTTT single-stranded linker to array surface; dsDNA, one strand shown
Outline: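 A custom Agilent array was converted to double-stranded form by primer extension with Cy5-dUTP and blocked with 2% BSA. Protein at 200 nM in PBS with 2% BSA, salmon testes DNA and 50 µM zinc acetate was applied for 1 h at 25 °C, followed by washing. The proteins were polyhistidine–DsRed N-terminal fusions of transcription factors, expressed in E. coli BL21-CodonPlus and Ni–NTA-purified. The binding signal is per-feature fluorescence intensity (arbitrary units) from an Axon 4000B scanner.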

Sequence	binding signal
ATCGGTACCGAACTAGGCCCACCTTGCTTATGTGGCAAACCGGAGTCACCTAGTGCAG	9280 fluorescence intensity (a.u.)
TTATTCATACATGTCACTGCCAGGCTGCTGTCTACTTCTTCGGAGTCACCTAGTGCAG	4950 fluorescence intensity (a.u.)
GACTAGCTGGCCAGCGGCCTAGCGTTGTACTCTATCCATCCGGAGTCACCTAGTGCAG	10100 fluorescence intensity (a.u.)
CACCTATAAACGCTCCTCGCCATCCCACTGACGCCGCCTTCGGAGTCACCTAGTGCAG	3810 fluorescence intensity (a.u.)
GTCGTGGAGGCCGGCACGCACGACGAGCTCTTGGGGATGGCGGAGTCACCTAGTGCAG	3600 fluorescence intensity (a.u.)
GTAGAAAACTTTGCAGACGTGTACATAAACACTGCGATAGCGGAGTCACCTAGTGCAG	4950 fluorescence intensity (a.u.)
GTATTCTGATCATGCGGCTATCCTAGTACTCTCGAGCACCCGGAGTCACCTAGTGCAG	23900 fluorescence intensity (a.u.)
TCCCATTGATTTGATCCAGCTAATTAATTAATTCGATCCACGGAGTCACCTAGTGCAG	3460 fluorescence intensity (a.u.)
ACTGGCTTGAAATTAGCTAAAAGATGACAAAGCAGTTGGCCGGAGTCACCTAGTGCAG	4570 fluorescence intensity (a.u.)
AGCCCCGCCACCTCAAACAGTTTGGTAAACCCTAGCCATGCGGAGTCACCTAGTGCAG	3300 fluorescence intensity (a.u.)
CCCACCCCGCGTGCAGCTTAGGCGAACCCTCCTCCCTCCGCGGAGTCACCTAGTGCAG	3660 fluorescence intensity (a.u.)
GCCCACATGTCAGCCACACGCCACCTCGCACGTGCGTCACCGGAGTCACCTAGTGCAG	6800 fluorescence intensity (a.u.)
ACTACCAGGCGGCAGCGGTGACGCCACCCGCGCCCGCGCCCGGAGTCACCTAGTGCAG	4740 fluorescence intensity (a.u.)
CTTGGACATCACCTGCGTGTTTCGAATCAGCTCCGTCATGCGGAGTCACCTAGTGCAG	3710 fluorescence intensity (a.u.)
TATTCACAAGCCGCCCTCGTGGCTGTACTCGTACTACGATCGGAGTCACCTAGTGCAG	3720 fluorescence intensity (a.u.)
GCGGCGGTCTCTGCGGCTGAGACTGATGAGCTTTAGGTGGCGGAGTCACCTAGTGCAG	28500 fluorescence intensity (a.u.)
CCGCATTCTCCCGCGCCGCGCCGGATTTTGGGTACAAATGCGGAGTCACCTAGTGCAG	3420 fluorescence intensity (a.u.)
GCGGCCTATTGTTAGCGAGGAGTCACCCAGATTCTTCTCCCGGAGTCACCTAGTGCAG	6870 fluorescence intensity (a.u.)
GTATCATGTCAATTGTCAGTATGACAAAAGCTAATTCCTACGGAGTCACCTAGTGCAG	28900 fluorescence intensity (a.u.)
CCCTGCGCAACTCTGCGGCTCGGCTACCTCGACATCGACTCGGAGTCACCTAGTGCAG	3260 fluorescence intensity (a.u.)
ATAGCAGGAGGAGTGCAGGAAACACACATGCTCTTCCTCCCGGAGTCACCTAGTGCAG	3670 fluorescence intensity (a.u.)

2 entries drawn at random from those above, as already listed:
Sequence	binding signal
CCCTGCGCAACTCTGCGGCTCGGCTACCTCGACATCGACTCGGAGTCACCTAGTGCAG	3260 fluorescence intensity (a.u.)
CTTGGACATCACCTGCGTGTTTCGAATCAGCTCCGTCATGCGGAGTCACCTAGTGCAG	3710 fluorescence intensity (a.u.)

Remaining list, next part

Sequence	binding signal
CCCGTGCCACACGCCCACAACGCACGCCCTCCTCGAGACCCGGAGTCACCTAGTGCAG	3510 fluorescence intensity (a.u.)
TCATGTTGCCCAACTGCCACATGGGTGGCCACTGTGCAGTCGGAGTCACCTAGTGCAG	4740 fluorescence intensity (a.u.)
GTAGTTAAGTATATTAACTAATAGTGTTAATAGAGGTAGTCGGAGTCACCTAGTGCAG	4230 fluorescence intensity (a.u.)
ATAAATAACCTGTCTGAAGGCGGGCTGGCGCCACGTGTTGCGGAGTCACCTAGTGCAG	10500 fluorescence intensity (a.u.)
GGTTGAAAGCTTTCAGAATTTGACTCAGCGTATAAATTTCCGGAGTCACCTAGTGCAG	6950 fluorescence intensity (a.u.)
GACCACAACACGCGACGCCACGCCTCCTCCCGATCCGCTCCGGAGTCACCTAGTGCAG	3510 fluorescence intensity (a.u.)
CCCAAACCCCAGAGTTTGAGTACGCGTCAGATGGCGGTTTCGGAGTCACCTAGTGCAG	6710 fluorescence intensity (a.u.)
TTACAAAACAACTAACTTTACATTTCAATTTGGACCATCACGGAGTCACCTAGTGCAG	4510 fluorescence intensity (a.u.)
CATCATTACTTGACACGCACAGCACTCCGCCCATCCCCGCCGGAGTCACCTAGTGCAG	5480 fluorescence intensity (a.u.)
TTCCATTTCTTCCCCTCGCCAAGGCGAGGCCGCGAGAGGGCGGAGTCACCTAGTGCAG	9040 fluorescence intensity (a.u.)
TGAAATGTCACGTACTGTTTGTTCTAGTTAGTGAATTGTCCGGAGTCACCTAGTGCAG	3560 fluorescence intensity (a.u.)
CGAAGTCTGCGCAGCGTCGTCACTGAGCACGTGCCGTCGTCGGAGTCACCTAGTGCAG	4270 fluorescence intensity (a.u.)
CTCGCCGCCGACGTTGAGGGTGACGACGGAGGAGGCCATTCGGAGTCACCTAGTGCAG	3730 fluorescence intensity (a.u.)
CTGTATATATCCACACCTGAACACATTGGCTTCTGGGCATCGGAGTCACCTAGTGCAG	4230 fluorescence intensity (a.u.)
GTGCAAGTGCCGAACGCGGCCGACGTGGCGAAGGCGGCTGCGGAGTCACCTAGTGCAG	7190 fluorescence intensity (a.u.)
CGCATCTCTTATACCAATTTCGGGGTCTGGGATCTGGGTTCGGAGTCACCTAGTGCAG	22600 fluorescence intensity (a.u.)
AGTTTACTGAAGATGACACGCCGACACGAATTAGGACAGCCGGAGTCACCTAGTGCAG	3710 fluorescence intensity (a.u.)
GTTTTATGTACATGTCATATGTTTCTTAAGGCCTAAATGCCGGAGTCACCTAGTGCAG	3580 fluorescence intensity (a.u.)
AGCTTGTTTAGCTCCTGGAAGAAATGTGTCCGAATTATATCGGAGTCACCTAGTGCAG	3540 fluorescence intensity (a.u.)
ACACCGCACCGCATCGTCGCCGTCATCCTCCGGCGTCCCGCGGAGTCACCTAGTGCAG	3540 fluorescence intensity (a.u.)
CGTCGTAGGTGAAACAGCCACGTCATCTCGCAGGTGAATCCGGAGTCACCTAGTGCAG	13900 fluorescence intensity (a.u.)
